# Experimental data as given in the supplement of paper PMC3334620.
# Over roughly 33,000 sequences, “E-score (-0.5 to 0.5)” has its median near -8e-05; the highest 2% begin near 0.23. Some of the results follow.
# Biological target: T1, Nrg2 (UniProt P38082)
# T1 sequence: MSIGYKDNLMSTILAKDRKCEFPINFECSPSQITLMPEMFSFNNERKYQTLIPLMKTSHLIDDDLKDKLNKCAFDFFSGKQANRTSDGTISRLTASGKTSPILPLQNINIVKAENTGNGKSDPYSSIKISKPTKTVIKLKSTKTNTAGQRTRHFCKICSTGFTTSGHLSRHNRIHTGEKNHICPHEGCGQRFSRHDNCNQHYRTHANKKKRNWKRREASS
# Assay: PBM E-score (8-mer binding enrichment) (E-score (-0.5 to 0.5)); higher = stronger / more preferred TF binding
# Details: protein concentration: 100 nM; construct: GST-full length
# Method: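 Universal 'all 10-mer' protein binding microarrays (Agilent AMADID 015681) probed with GST-tagged S. cerevisiae TFs (full-length or DBD) made by in vitro transcription/translation (PURExpress), about 100-200 nM. Bound TF was detected with fluorescent anti-GST. Each ungapped 8-mer (which stands for itself and its reverse complement) is scored by the PBM enrichment score (E-score), a modified Wilcoxon-Mann-Whitney statistic from -0.5 to +0.5, computed with the Universal PBM Analysis Suite. Scale: above 0.35 generally sequence-specific binding.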
row,Sequence,PBM E-score
1,AAGGATGA,-0.0508
2,CACTATTC,0.058
3,AAGAGATG,0.0143
4,CTGGACCA,-0.0552
5,AAGTTCGG,0.0102
6,ACACTTGG,0.0484
7,GGTGCCAA,-0.0376
8,ACTTCGAG,0.117
9,ATCGGCTC,-0.0282
10,AGAATTCC,-0.0647
11,AAACATCA,0.108
12,AGGTAGGG,-0.004
13,AGACGTTA,-0.125
14,GACCTTGA,0.099
15,GAGAATTA,0.0707
16,AGAATCCA,0.0493
17,ACCTCCGG,0.0492
18,CGACTCGC,-0.0213
19,GATTAGTA,0.111
20,AAGATATT,0.126
21,GTATGTTA,-0.0277
22,GATTAATA,0.29
23,TAAAACAA,-0.0382
24,GGGGAATA,-0.00627
25,ATAACGAC,0.102

row,Sequence,PBM E-score
1,CCAACGAC,-0.211
2,ACCAGACC,0.0496
3,GTCTCAGA,-0.0893
4,CGATAAAC,-0.0733
5,GTACCGTA,-0.0593
6,ACTGACCT,0.0173
7,CAAACGTA,0.105
8,CTCTATCA,-0.0589
9,GATTGGGC,0.0756
10,GGAAAACA,0.111
11,ATGTTTTG,0.0892
12,CAGTACGG,-0.113
13,AGGCTACC,-0.25
14,CGCTATAC,0.0646
15,GCTTGCCC,-0.293
16,GCGTCAGC,-0.183
17,AAATTGCA,0.232
18,GTCTACGA,-0.143
19,AGTTGTCC,0.0314
20,ATTGAGTC,0.0274
21,GTCTAACA,-0.216
22,CGGAACGA,0.195
23,GCGCGATA,0.254
24,AGGACAAA,0.169
25,TGCAGAAA,0.104

row,Sequence,PBM E-score
1,AGTAGGTG,-0.0986
2,TCGGGACA,0.0361
3,CATCTATC,-0.0427
4,GACCCTGA,0.389
5,AAACCGCA,-0.0776
6,CCCGGTTC,-0.162
7,CACGTTCA,-0.169
8,CCGGCTTA,0.0301
9,AAACCCGT,-0.00439
10,CCCTACAG,-0.146
11,GATTCAGA,0.157
12,ACGCTTCA,-0.188
13,ATCTTCAC,0.0737
14,AGCTCCCC,-0.146
15,ACATATGT,-0.149
16,ACAGCGGC,-0.183
17,CGATCTGA,0.078
18,ACGGTGTC,-0.125
19,CTCTCCAG,-0.139
20,GACCGCTC,-0.187
21,CCTACACG,-0.213
22,CCTTGCGC,0.166
23,CCAAAGGG,0.158
24,ACAGCAGA,0.0514
25,GGACATCC,-0.0215

row,Sequence,PBM E-score
1,TTAATGAA,0.123
2,CTATCAAC,0.0112
3,GCTTCCCA,-0.222
4,AAAGCTTC,-0.122
5,ATATCGAT,0.213
6,CTATGCTA,-0.00029
7,ATGTTGAC,0.0638
8,CAGGGGGA,-0.184
9,GAGTCTAC,-0.0996
10,GTTTCTAA,-0.0624
11,CAGTGCAA,0.0968
12,GTTTACTA,0.155
13,GGCGTTTA,-0.0523
14,TACACCCA,0.149
15,CAAATTTG,0.107
16,ACCAGTCA,-0.0898
17,CACCATAC,-0.0811
18,GTTGACGA,0.00106
19,ATAAATTA,0.316
20,CAACTCTC,0.0117
21,CCAATCCC,0.112
22,ACTATCTC,0.0488
23,CGTATGTC,-0.0721
24,AAGTTAAC,0.106
25,ATCGTTAA,0.188

row,Sequence,PBM E-score
1,CTATTTTA,0.121
2,GTAATGTA,-0.19
3,CCTGGTAC,0.143
4,AGTGGTCC,-0.0166
5,CCAACAAG,0.0665
6,CGTTACAG,0.0283
7,AGGGTTCA,0.281
8,GTTACACA,-0.0481
9,ATCATGTC,0.0168
10,ATAATAGG,0.203
11,ACTGTACT,0.0706
12,CAGAGGGG,-0.314
13,CTCTATTA,-0.105
14,AAGGCTAG,-0.0047
15,ACCCTGTA,0.347
16,CGTTGGCC,-0.254
17,TCGGGGAA,0.0293
18,CCCACGAC,-0.126
19,CCAACTCC,0.224
20,AATTGAGC,-0.0424
21,CGGGTTAG,-0.218
22,AAGGTCAG,-0.0844
23,AGTCCGCG,-0.0189
24,CGAGGGAA,0.0651
25,CTATTGGC,-0.222

# Some values from the entries so far.
# GTATGTTA | PBM E-score: -0.0277
# CCAAAGGG | PBM E-score: 0.158
# GTCTAACA | PBM E-score: -0.216
# GTACCGTA | PBM E-score: -0.0593
# AGACGTTA | PBM E-score: -0.125
# CTATCAAC | PBM E-score: 0.0112

# More entries follow:

row,Sequence,PBM E-score
1,GGGAACAA,0.0199
2,GAGTGAGC,-0.043
3,ACATCTTA,0.117
4,AATTTCAC,0.0325
5,ACTCGTCT,0.147
6,GCGGAGCA,-0.189
7,AAGCACTC,-0.111
8,CGCATAGC,-0.043
9,ACACTGTC,-0.0654
10,ACGAAGAT,0.0578
11,ACGCGAGT,-0.0098
12,AGGTCTAG,-0.162
13,AGATATAG,0.00406
14,CATAGCAG,-0.256
15,GGTCGACA,-0.00124
16,ACGAGCTC,0.0413
17,GATACCAC,0.104
18,TGTCTGAA,0.0253
19,GGGATACC,-0.051
20,ATAGTGTA,0.0816
21,CACAAGAA,0.245
22,AAGCTTCT,-0.0885
23,AGTTTTCA,-0.054
24,AGGATGGG,-0.104
25,AAGCAAAC,0.0587

row,Sequence,PBM E-score
1,CGTTGGAA,-0.165
2,AGTAACCG,0.0546
3,CCTCCCCA,0.0795
4,AACATTGC,-0.0856
5,CGTAGGGA,-0.032
6,AACTCAGC,0.129
7,CAATGAAA,0.112
8,ACCATTCC,0.00799
9,ACGGACAG,-0.0106
10,CTTTGTAA,-0.0719
11,AAAGAACG,0.0453
12,GAGCCGGA,-0.0577
13,AGCAAGGG,0.261
14,AACGTACC,-0.205
15,CGCACATC,0.0591
16,CTCTCGTC,-0.147
17,AAGGAACA,0.0535
18,ATATCGTG,0.0993
19,AATGGCCG,-0.134
20,GAAGTGCC,-0.207
21,GGGATTAC,-0.0748
22,ATTCGGCC,0.0563
